Values from PubChem BioAssay AID1508588 (Peter MacCallum Cancer Centre, 2020).

- Aim: 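Which gene losses make BRAF-mutant melanoma cells more responsive to vemurafenib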 (primary screen)
- Cell system: human WM266.4 melanoma cells (BRAF V600 mutant)
- Knock-down reagent: siRNA pool against human genes, 40 nM
- Time to read-out: 96 h from transfection to read-out
- Conditions: vemurafenib 300 nM (about IC25), added 48 h after transfection, for 48 h; comparison arm got DMSO vehicle only
- Detection: 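Ratios to non-targeting siRNA for cell gain, counted as DAPI nuclei after minus before drug and averaged over two replicates, and for absorbance-read medium lactate per cell; both binned into fold-change classes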
- Direction: cell gain with vemurafenib: higher = more cell gain than with non-targeting siRNA; lactate per cell with vemurafenib: higher = more lactate made per cell
- Call rule: 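Enhancement is called by pairing each knock-down's vehicle-arm and drug-arm fold-change classes for viability or glycolysis; which class combinations qualify is not given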
- Meaning of the calls: active = enhances vemurafenib effect; inactive = no enhancement seen
The whole screen tested about 18,000 reagents; this is a part drawn at random. Of all reagents, 790 (4.4%) got an active call. 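Calls rest on a combination of fold-change classes in drug and vehicle arms, not all shown here.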 Reagent sequences are not shown.

gene knocked down	cell gain with vemurafenib	lactate per cell with vemurafenib	Call
CSTPP1	0.03	0.24	inactive
TTBK1	0.88	0.68	inactive
PTCH1	0.8	0.92	inactive
RHOXF2	0.38	2.22	inactive
STPG3	0.81	0.67	inactive
ART3	0.5	1.24	inactive
OPN1LW	0.7	0.82	inactive
ABCG2	1.18	0.79	inactive
FBXL2	0.88	0.58	inactive
SLC19A4P	0.26	0.57	inactive
TSGA13	0.57	0.43	active
TSPAN15	0.85	0.85	inactive
NAALAD2	0.4	0.72	inactive
OR4D10	0.64	1.04	inactive
MGST1	0.63	1.66	inactive
VPS4B	0.44	0.36	inactive
COQ10A	0.43	1.1	inactive
CREB3L1	0.32	0.83	inactive
PIM1	0.7	1.04	inactive
TNK1	0.57	1.74	inactive
FCN3	0.92	0.41	inactive
MATR3	0.37	2.37	inactive
WDR13	0.74	1.31	inactive
ABCG1	0.78	0.79	inactive
IGFBP7	0.79	0.92	inactive
THG1L	0.64	0.73	inactive
CD2BP2	0.43	0.68	inactive
FBLN7	0.5	1.17	inactive
BCL7C	0.69	0.49	inactive
FAT2	-0.08	1.56	inactive
PRKCSH	0.25	1.21	inactive
PTPRF	0.33	1.73	inactive
MTA1	0.53	1	inactive
TBC1D8B	0.45	0.82	inactive
SDSL	0.77	1.42	inactive
IFI16	0.57	0.98	inactive
FLT4	-0.19	0.43	inactive
EIF4G3	0.56	1.05	inactive
ZNF764	0.63	1.04	inactive
IGFALS	0.25	0.36	active
ZFP82	0.19	2.16	inactive
AP1S3	1.08	0.46	inactive
COMMD8	0.98	1	inactive
NDC1	0.41	0.84	inactive
SLC6A1	0.47	0.86	inactive
NLRP3	0.62	1.73	inactive
SLC6A15	0.52	0.88	inactive
ZKSCAN5	0.3	2.5	inactive
KRTAP5-11	0.09	0.89	inactive

Ordered by “cell gain with vemurafenib” (low to high): 13 of the entries above
gene knocked down	cell gain with vemurafenib	lactate per cell with vemurafenib	Call
FLT4	-0.19	0.43	inactive
FAT2	-0.08	1.56	inactive
ZFP82	0.19	2.16	inactive
PRKCSH	0.25	1.21	inactive
IGFALS	0.25	0.36	active
PTPRF	0.33	1.73	inactive
TBC1D8B	0.45	0.82	inactive
MTA1	0.53	1	inactive
EIF4G3	0.56	1.05	inactive
IFI16	0.57	0.98	inactive
ZNF764	0.63	1.04	inactive
BCL7C	0.69	0.49	inactive
SDSL	0.77	1.42	inactive

More records:
gene knocked down	cell gain with vemurafenib	lactate per cell with vemurafenib	Call
ADARB1	0.33	1.9	inactive
ATE1	0.93	0.78	inactive
BBX	0.14	1.98	inactive
ADAMTSL5	0.9	0.92	inactive
HKDC1	0.31	0.98	inactive
IL5RA	1.11	0.88	inactive
JADE1	1.07	0.98	inactive
NOL10	0.64	0.44	inactive
HS3ST4	0.26	1.17	inactive
UCK1	1.29	0.6	inactive
GDF9	0.2	1.1	inactive
ZSWIM3	0.68	0.81	inactive
KCTD5	0.6	1.9	inactive
PYHIN1	0.46	0.86	inactive
ERCC8	0.58	0.9	inactive
IGFLR1	0.9	1.28	inactive
TP53	1.16	0.2	inactive
ASAH2	0.42	1.84	inactive
CBR3	0.71	0.84	inactive
PDGFRL	0.47	1.38	inactive
MAGI3	0.93	0.78	inactive
NCAPH2	0.24	1.9	inactive
MPRIP	0.89	1.02	inactive
CFAP418	0.96	0.6	inactive
CALHM2	0.73	0.66	inactive
POLR1E	0.7	0.63	active
CSGALNACT1	0.31	1.6	inactive
ZNF92	0.91	0.86	inactive
JMY	1	0.57	inactive
PCDHGC4	0.47	0.55	inactive
TMEM236	0.93	0.94	inactive
PLEKHA1	1.3	0.66	inactive
IER3	0.78	1.33	inactive
FRG2B	0.71	0.94	inactive
ETFRF1	0.87	0.94	inactive
HAPLN1	0.57	1.25	inactive
TOMM70	0.54	0.84	inactive
SYT13	0.53	0.38	inactive
CIB3	0.41	0.8	inactive
RNASE7	0.45	0.4	inactive
DIPK1B	0.08	1.64	inactive
TEX35	0.43	0.66	inactive
ARL6IP6	0.55	0.93	inactive
TTC19	0.48	2.04	inactive
ANTXR1	1.1	0.81	inactive
MAP1LC3A	0.95	1.1	inactive
SPMAP1	0.31	0.9	inactive
CCL24	0.12	1.9	inactive
AIP	0.72	0.45	inactive
DNMBP	0.74	0.42	inactive
FAM24A	0.89	1.08	inactive
MS4A1	0.87	0.58	inactive
SLC25A32	0.64	2.01	inactive
SPSB4	0.49	0.44	inactive
ASGR1	0.79	0.77	inactive
ABHD14B	0.38	1.05	inactive
PGRMC1	0.42	0.6	inactive
SIX1	0.95	0.42	inactive
